For this test, the system named is P388 leukemia ip, CD2F1 mice, survival T/C. Put plainly: NCI In Vivo Anticancer Drug Screen. Data for tumor model P388 Leukemia (intraperitoneal) in CD2F1 (CDF1) mice. The note with it: T/C endpoint: median survival time, higher T/C = longer survival.
The mark [1] stands for this setting: dose: 240.0 mg/kg/injection, schedule: Q01DX005 (ip), vehicle: saline with Tween-80.
Setting [2] is: dose: 100.0 mg/kg/injection, schedule: Q01DX009 (ip), vehicle: water.
Where [3] appears, read: dose: 100.0 mg/kg/injection, schedule: Q01DX009 (ip), vehicle: saline.
Where [4] appears, read: dose: 200.0 mg/kg/injection, schedule: Q01DX009 (ip), vehicle: saline.

The list shows only some results of the screen, not a fair sample: it is rich in T/C values a quarter to a half above the control, in often repeated tests (any T/C) and in doses without a T/C. Further doses and runs are listed elsewhere. T/C is the treated group as % of the vehicle group. Some doses have a count of surviving animals in place of a T/C: the source holds a T/C of zero for them, seemingly a mark for toxic or unscored doses. Some survivor counts are full or nearly so, which does not show that the dose was tolerated: the source hardly ever lists a survival T/C far under the control, and the zero likely stands for such cases as well. Survivors were counted at the toxicity check, usually on the fifth day, unless a day is given; later deaths do not show. Schedule codes are those of the source, taken here to give the interval after Q, in days (D) or hours (H), and the number of doses after X. Some entries were tested several times; the values are given in rising order. Some molecules as drawn cover several salts, stereoisomers or complexes of the source; a dose is that of the sample tested. Where survival is the endpoint, this PubChem deposit counts one and a half times the control or more as active, and values a quarter to a half above the control carry no call in these data; other NCI protocols may use other cut-offs.

Take `COc1cc2c(cc1OC)C13CCN4CC5=CCOC6CC(=O)N2C1C6C5CC43` (centres undefined): the survivor count (dose: 100.0 mg/kg/injection, schedule: Q04DX003 (ip), vehicle: saline sonified) is 3 of 6; the survivor count (dose: 120.0 mg/kg/injection, schedule: Q01DX005 (ip), vehicle: saline with Tween-80) is on record as 0 of 6; the survivor count under setting [1] is on record as 0 of 6.

For the compound `O=C1c2ccccc2C(=O)c2c3c(cc(NCCNCCO)c21)N(CCO)CCN3`, for the setting “dose: 25.0 mg/kg/injection, schedule: Q01DX009 (ip), vehicle: DMSO”, the T/C is 135 % of control.

As to `Cc1c2ccn(Cc3ccccc3)cc2c(C)c2c1nc1ccccc12`, the survivor count is reported as 5 of 6 (dose: 77.0 mg/kg/injection, schedule: Q04DX002 (ip), vehicle: saline with Tween-80) and 1 of 6 (dose: 154.0 mg/kg/injection, schedule: Q04DX002 (ip), vehicle: saline with Tween-80).

As for `CC12CC(OC(=O)[C@]1(C)O)[C@@H]([C@]1(O)CC[C@H]3[C@@H]4C[C@H]5O[C@]56[C@@H](O)C=CC(=O)[C@]6(C)[C@H]4CC[C@@]31C)C2` (some centres undefined), the T/C (dose: 16.0 mg/kg/injection, schedule: Q01DX005 (ip), vehicle: saline + alcohol) is 127 % of control. In addition, the survivor count runs as follows: (dose: 32.0 mg/kg/injection, schedule: Q01DX005 (ip), vehicle: saline + alcohol) 0 of 6 and 4 of 6; (dose: 64.0 mg/kg/injection, schedule: Q01DX005 (ip), vehicle: saline + alcohol) 4 of 6; (dose: 128.0 mg/kg/injection, schedule: Q01DX005 (ip), vehicle: saline + alcohol) 0 of 6.

Turning to `COc1cc2c(C)nc3c4cc5c(cc4ccc3c2cc1OC)OCO5`, the survivor count runs as follows: under setting [2], 6 of 6; (dose: 200.0 mg/kg/injection, schedule: Q01DX009 (ip), vehicle: water) 6 of 6; (dose: 400.0 mg/kg/injection, schedule: Q01DX009 (ip), vehicle: water) 4 of 6.

Regarding `CC(C)=CCC(OC(=O)C=C(C)C)c1cc(O)c2c(O)ccc(O)c2c1O.[Mn]` (centres undefined), the survivor count is 2 of 6 (dose: 200.0 mg/kg/injection, schedule: Q01DX001 (ip), vehicle: saline with Tween-80) and 0 of 6 (dose: 400.0 mg/kg/injection, schedule: Q01DX001 (ip), vehicle: saline with Tween-80).

With `CC(C)[CH2][Ge]([Cl])([Cl])[Cl]`, the survivor count by setting is: (dose: 12.5 mg/kg/injection, schedule: Q01DX009 (ip), vehicle: saline) 3 of 6; (dose: 25.0 mg/kg/injection, schedule: Q01DX009 (ip), vehicle: saline) 2 of 6; (dose: 50.0 mg/kg/injection, schedule: Q01DX009 (ip), vehicle: saline) 0 of 6; under setting [3], 0 of 6; under setting [4], 0 of 6.

With `CCN(CC)C(C)C(=O)c1ccc2cc(Br)c3ccccc3c2c1` (centres undefined), where the note is “dose: 200.0 mg/kg/injection, schedule: Q01DX005 (ip), vehicle: saline”, the survivor count is on record as 0 of 5.

Regarding `Nc1ccc(N)c2c1C(=O)c1ccccc1C2=O`, the survivor count is reported as 6 of 6 (dose: 200.0 mg/kg/injection, schedule: Q01DX009 (ip), vehicle: Klucel (hydroxypropylcellulose) (HPC)) and 6 of 6 (dose: 400.0 mg/kg/injection, schedule: Q01DX009 (ip), vehicle: Klucel (hydroxypropylcellulose) (HPC)).

Consider `COC(=O)NC1(NC(=O)OC)NC(=O)c2ccccc2N1`, for which the survivor count reads like this: (dose: 100.0 mg/kg/injection, schedule: Q01DX005 (ip), vehicle: DMSO) 6 of 6; (dose: 200.0 mg/kg/injection, schedule: Q01DX005 (ip), vehicle: DMSO) 6 of 6.

Turning to `COc1ccc2nc(C(=O)NC3COC(=O)C(C(C)(C)O)N(C)C(=O)CN(C)C(=O)CNC(=O)C4C(OC(C)=O)CC=NN4C(=O)C(NC(=O)c4nc5ccc(OC)cc5cc4O)COC(=O)C(C(C)(C)O)N(C)C(=O)CN(C)C(=O)CNC(=O)C4C(O)CC=NN4C3=O)c(O)cc2c1` (centres undefined), where the note is “dose: 50.0 micrograms/kg/injection, schedule: Q01DX005 (ip), vehicle: DMSO”, the T/C was 130 % of control. The survivor count is 6 of 6 (dose: 100.0 micrograms/kg/injection, schedule: Q01DX005 (ip), vehicle: DMSO); 3 of 6 (dose: 200.0 micrograms/kg/injection, schedule: Q01DX005 (ip), vehicle: DMSO); 1 of 6 (dose: 400.0 micrograms/kg/injection, schedule: Q01DX005 (ip), vehicle: DMSO); 0 of 6 (dose: 800.0 micrograms/kg/injection, schedule: Q01DX005 (ip), vehicle: DMSO).

For `COc1cc2c[n+](C)c3c4cc5c(cc4ccc3c2cc1OC)OCO5` (tested in a mixture with another compound), the T/C was 127 % of control (dose: 1.56 mg/kg/injection, schedule: Q01DX009 (ip), vehicle: other); 137 % of control (dose: 6.25 mg/kg/injection, schedule: Q01DX009 (ip), vehicle: water); 128 % of control (dose: 11.1 mg/kg/injection, schedule: Q01DX009 (ip), vehicle: other); 142 % of control (dose: 12.5 mg/kg/injection, schedule: Q01DX009 (ip), vehicle: Klucel (hydroxypropylcellulose) (HPC)); 147 % of control (dose: 12.5 mg/kg/injection, schedule: Q01DX009 (ip), vehicle: water); 143 % of control (dose: 16.7 mg/kg/injection, schedule: Q01DX009 (ip), vehicle: other). Besides, the T/C by setting is: (dose: 25.0 mg/kg/injection, schedule: Q01DX009 (ip), vehicle: Klucel (hydroxypropylcellulose) (HPC)) 131 % of control; (dose: 25.0 mg/kg/injection, schedule: Q01DX009 (ip), vehicle: water) 131 % of control. Moreover, the survivor count was 6 of 6 (dose: 25.0 mg/kg/injection, schedule: Q01DX009 (ip), vehicle: other); 4 of 6 (dose: 37.5 mg/kg/injection, schedule: Q01DX009 (ip), vehicle: other); 6 of 6 (dose: 50.0 mg/kg/injection, schedule: Q01DX009 (ip), vehicle: Klucel (hydroxypropylcellulose) (HPC)); 4 of 6 (dose: 100.0 mg/kg/injection, schedule: Q01DX009 (ip), vehicle: Klucel (hydroxypropylcellulose) (HPC)); 4 of 6 under setting [2].

Consider `Cc1cc(C2=CSC3=NCCN23)ccc1Cl`, for which the survivor count (dose: 200.0 mg/kg/injection, schedule: Q01DX005 (ip), vehicle: saline with Tween-80) is reported as 0 of 5.

For `COC(=O)CN(C)P(=O)(N1CC1)N1CC1`, the T/C reads like this: (dose: 3.75 mg/kg/injection, schedule: Q01DX005 (ip), vehicle: saline with Tween-80) 138 % of control; (dose: 7.5 mg/kg/injection, schedule: Q01DX005 (ip), vehicle: saline) 146 % of control. In addition, the survivor count is on record as 5 of 6 (dose: 15.0 mg/kg/injection, schedule: Q01DX005 (ip), vehicle: saline with Tween-80); 5 of 6 (dose: 60.0 mg/kg/injection, schedule: Q01DX005 (ip), vehicle: saline); 0 of 6 (dose: 120.0 mg/kg/injection, schedule: Q01DX005 (ip), vehicle: saline); 0 of 6 (dose: 240.0 mg/kg/injection, schedule: Q01DX005 (ip), vehicle: saline).

As for `FC(F)(F)C1(C(F)(F)F)OI2(Br)(OC(C(F)(F)F)(C(F)(F)F)c3ccccc32)c2ccccc21`, the survivor count (dose: 25.0 mg/kg/injection, schedule: Q01DX005 (ip), vehicle: Klucel (hydroxypropylcellulose) (HPC)) was 0 of 6; the survivor count (dose: 50.0 mg/kg/injection, schedule: Q01DX005 (ip), vehicle: Klucel (hydroxypropylcellulose) (HPC)) is listed as 0 of 6; the survivor count (dose: 100.0 mg/kg/injection, schedule: Q01DX005 (ip), vehicle: Klucel (hydroxypropylcellulose) (HPC)) is on record as 0 of 6; the survivor count (dose: 200.0 mg/kg/injection, schedule: Q01DX005 (ip), vehicle: Klucel (hydroxypropylcellulose) (HPC)) is 0 of 6.

For `CN(C)c1nc(N)c(N=O)c(=O)[nH]1`, the survivor count is 6 of 6 under setting [3]; 6 of 6 under setting [4]; 0 of 6 (dose: 200.0 mg/kg/injection, schedule: Q04DX003 (ip), vehicle: saline with Tween-80); 0 of 6 (dose: 400.0 mg/kg/injection, schedule: Q04DX003 (ip), vehicle: saline with Tween-80).

For the compound `CN1C(=O)C2CCC(=O)N2C(=S)N(C)C1=S` (centres undefined), under setting [1], the survivor count is 6 of 6.

(Values after PubChem BioAssay AID330 (DTP/NCI, 2004).)
